Measurements reported in PubChem BioAssay AID1259254 (NCATS, 2017)
Assay: 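Gene knock-downs that lead to re-replication, shown by excess G2 DNA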 (primary screen). Cells: human HCT116 colorectal cancer cells. Reagents: single siRNA against human genes. Time to read-out: 3 days. Measured: 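Imaged Hoechst DNA stain sorts each cell into a cycle phase by DNA amount; per plate, G2 fraction set to 0% for non-targeting and 100% for GMNN siRNA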. Scale: G2 robust z-score and G2 cells, % of GMNN control: higher = more G2 cells, more excess DNA replication. Active means: 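Active siRNAs have a G2 robust z of 5 or more median absolute deviations over the median, which in these data means about 38% or higher of GMNN control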.
This is an unselected part of about 59,000 deposited reagents. About 1,550 of them (2.6%) count as active. 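G2 share is only a proxy for re-replication; each gene was hit by three separate siRNAs, and active genes were retested.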 Reagents against one gene are numbered here. Not all columns of the deposit are shown. Not given: the amount of reagent.

| gene | siRNA no. | G2 robust z-score | G2 cells, % of GMNN control | Call |
| --- | --- | --- | --- | --- |
| C11orf21 (chromosome 11 open reading frame 21) | 1 | 1.96 | 16.7 | inactive |
| C11orf21 (chromosome 11 open reading frame 21) | 2 | -0.312 | 0.772 | inactive |
| C11orf21 (chromosome 11 open reading frame 21) | 3 | -0.154 | 1.88 | inactive |
| FGF13 (fibroblast growth factor 13) | 1 | -0.66 | -1.68 | inactive |
| FGF13 (fibroblast growth factor 13) | 2 | 0.338 | 5.35 | inactive |
| FGF13 (fibroblast growth factor 13) | 3 | 0.107 | 3.72 | inactive |
| FGF13 (fibroblast growth factor 13) | 4 | -0.19 | 1.63 | inactive |
| FGF13 (fibroblast growth factor 13) | 5 | -0.36 | 0.437 | inactive |
| FGF13 (fibroblast growth factor 13) | 6 | -0.688 | -1.88 | inactive |
| ABCC2 (ATP binding cassette subfamily C member 2) | 1 | 5.42 | 41.1 | active |
| ABCC2 (ATP binding cassette subfamily C member 2) | 2 | -0.0517 | 2.6 | inactive |
| ABCC2 (ATP binding cassette subfamily C member 2) | 3 | 1.01 | 10.1 | inactive |
| CSGALNACT1 (chondroitin sulfate N-acetylgalactosaminyltransferase 1) | 1 | -0.938 | -3.63 | inactive |
| CSGALNACT1 (chondroitin sulfate N-acetylgalactosaminyltransferase 1) | 2 | 0.923 | 9.46 | inactive |
| CSGALNACT1 (chondroitin sulfate N-acetylgalactosaminyltransferase 1) | 3 | 7.61 | 56.5 | active |
| ASIC5 (acid sensing ion channel subunit family member 5) | 1 | 2.71 | 22.1 | inactive |
| ASIC5 (acid sensing ion channel subunit family member 5) | 2 | 0.0471 | 3.3 | inactive |
| ASIC5 (acid sensing ion channel subunit family member 5) | 3 | -0.0905 | 2.33 | inactive |
| TNFSF10 (TNF superfamily member 10) | 1 | 4.7 | 36 | inactive |
| TNFSF10 (TNF superfamily member 10) | 2 | 2.32 | 19.3 | inactive |
| TNFSF10 (TNF superfamily member 10) | 3 | -0.54 | -0.833 | inactive |
| TRMO (tRNA methyltransferase O) | 1 | 3.84 | 30 | inactive |
| TRMO (tRNA methyltransferase O) | 2 | 0.461 | 6.21 | inactive |
| TRMO (tRNA methyltransferase O) | 3 | -0.373 | 0.344 | inactive |
| GUK1 (guanylate kinase 1) | 1 | -0.482 | -0.424 | inactive |
| GUK1 (guanylate kinase 1) | 2 | -0.747 | -2.29 | inactive |
| GUK1 (guanylate kinase 1) | 3 | 0.189 | 4.3 | inactive |
| PPP2CB (protein phosphatase 2 catalytic subunit beta) | 1 | 1 | 10 | inactive |
| PPP2CB (protein phosphatase 2 catalytic subunit beta) | 2 | -0.198 | 1.58 | inactive |
| PPP2CB (protein phosphatase 2 catalytic subunit beta) | 3 | -1.16 | -5.21 | inactive |
| KCNE4 | 1 | 0.259 | 4.79 | inactive |
| KCNE4 | 2 | 0.24 | 4.66 | inactive |
| KCNE4 | 3 | -1.35 | -6.52 | inactive |
| LGALSL (galectin like) | 1 | 0.825 | 8.77 | inactive |
| LGALSL (galectin like) | 2 | 3.33 | 26.4 | inactive |
| LGALSL (galectin like) | 3 | 0.0854 | 3.57 | inactive |
| MED18 (mediator complex subunit 18) | 1 | -0.365 | 0.398 | inactive |
| MED18 (mediator complex subunit 18) | 2 | -1.26 | -5.88 | inactive |
| MED18 (mediator complex subunit 18) | 3 | 0.0307 | 3.18 | inactive |
| PABPN1L (PABPN1 like, cytoplasmic) | 1 | -0.489 | -0.474 | inactive |
| PABPN1L (PABPN1 like, cytoplasmic) | 2 | -0.329 | 0.655 | inactive |
| PABPN1L (PABPN1 like, cytoplasmic) | 3 | 0.353 | 5.45 | inactive |
| CNTN4 (contactin 4) | 1 | -0.448 | -0.182 | inactive |
| CNTN4 (contactin 4) | 2 | -0.644 | -1.56 | inactive |
| CNTN4 (contactin 4) | 3 | 0.0364 | 3.22 | inactive |
| C5orf63 (chromosome 5 open reading frame 63) | 1 | 1.87 | 16.1 | inactive |
| C5orf63 (chromosome 5 open reading frame 63) | 2 | 1.11 | 10.8 | inactive |
| C5orf63 (chromosome 5 open reading frame 63) | 3 | 0.698 | 7.88 | inactive |
| POF1B (POF1B actin binding protein) | 1 | -0.241 | 1.28 | inactive |
| POF1B (POF1B actin binding protein) | 2 | 0.243 | 4.68 | inactive |
| POF1B (POF1B actin binding protein) | 3 | 1.02 | 10.1 | inactive |
| RPL34P34 (ribosomal protein L34 pseudogene 34) | 1 | 2.34 | 19.5 | inactive |
| RPL34P34 (ribosomal protein L34 pseudogene 34) | 2 | 0.34 | 5.36 | inactive |
| RPL34P34 (ribosomal protein L34 pseudogene 34) | 3 | 5.41 | 41.1 | active |
| OR4K1 (olfactory receptor family 4 subfamily K member 1) | 1 | 0.478 | 6.33 | inactive |
| OR4K1 (olfactory receptor family 4 subfamily K member 1) | 2 | 0.039 | 3.24 | inactive |
| OR4K1 (olfactory receptor family 4 subfamily K member 1) | 3 | -0.644 | -1.56 | inactive |
| ABCC5 (ATP binding cassette subfamily C member 5) | 1 | -1.03 | -4.25 | inactive |
| ABCC5 (ATP binding cassette subfamily C member 5) | 2 | -0.721 | -2.1 | inactive |
| ABCC5 (ATP binding cassette subfamily C member 5) | 3 | -0.785 | -2.55 | inactive |
| TMEM156 (transmembrane protein 156) | 1 | -0.958 | -3.77 | inactive |
| TMEM156 (transmembrane protein 156) | 2 | -0.233 | 1.33 | inactive |
| TMEM156 (transmembrane protein 156) | 3 | -0.614 | -1.35 | inactive |
| TAS2R1 (taste 2 receptor member 1) | 1 | 1.04 | 10.3 | inactive |
| TAS2R1 (taste 2 receptor member 1) | 2 | 0.374 | 5.6 | inactive |
| TAS2R1 (taste 2 receptor member 1) | 3 | 0.171 | 4.17 | inactive |
| EIF1P3 (eukaryotic translation initiation factor 1 pseudogene 3) | 1 | -0.435 | -0.0903 | inactive |
| EIF1P3 (eukaryotic translation initiation factor 1 pseudogene 3) | 2 | 7.17 | 53.4 | active |
| EIF1P3 (eukaryotic translation initiation factor 1 pseudogene 3) | 3 | -0.809 | -2.73 | inactive |
| SLC39A6 | 1 | -0.796 | -2.63 | inactive |
| SLC39A6 | 2 | -0.0359 | 2.71 | inactive |
| SLC39A6 | 3 | 0.747 | 8.22 | inactive |
| HNRNPA1L2 (heterogeneous nuclear ribonucleoprotein A1 like 2) | 1 | 0.671 | 7.69 | inactive |
| HNRNPA1L2 (heterogeneous nuclear ribonucleoprotein A1 like 2) | 2 | 3.29 | 26.1 | inactive |
| HNRNPA1L2 (heterogeneous nuclear ribonucleoprotein A1 like 2) | 3 | 1.15 | 11.1 | inactive |
| JRK (Jrk helix-turn-helix protein) | 1 | 0.00114 | 2.98 | inactive |
| JRK (Jrk helix-turn-helix protein) | 2 | -0.807 | -2.71 | inactive |
| JRK (Jrk helix-turn-helix protein) | 3 | 1.1 | 10.7 | inactive |
| DUS1L (dihydrouridine synthase 1 like) | 1 | 1.51 | 13.6 | inactive |
| DUS1L (dihydrouridine synthase 1 like) | 2 | 1.53 | 13.7 | inactive |
| DUS1L (dihydrouridine synthase 1 like) | 3 | 2.29 | 19.1 | inactive |
| AUP1 (AUP1 lipid droplet regulating VLDL assembly factor) | 1 | -0.0647 | 2.51 | inactive |
| AUP1 (AUP1 lipid droplet regulating VLDL assembly factor) | 2 | -0.856 | -3.05 | inactive |
| AUP1 (AUP1 lipid droplet regulating VLDL assembly factor) | 3 | 2.62 | 21.4 | inactive |
| TSSC4 (tumor suppressing subtransferable candidate 4) | 1 | 0.443 | 6.09 | inactive |
| TSSC4 (tumor suppressing subtransferable candidate 4) | 2 | -0.227 | 1.37 | inactive |
| TSSC4 (tumor suppressing subtransferable candidate 4) | 3 | -0.115 | 2.15 | inactive |

Hits (from the list above):
| gene | siRNA no. | G2 robust z-score | G2 cells, % of GMNN control | Call |
| --- | --- | --- | --- | --- |
| ABCC2 (ATP binding cassette subfamily C member 2) | 1 | 5.42 | 41.1 | active |
| CSGALNACT1 (chondroitin sulfate N-acetylgalactosaminyltransferase 1) | 3 | 7.61 | 56.5 | active |
| RPL34P34 (ribosomal protein L34 pseudogene 34) | 3 | 5.41 | 41.1 | active |
| EIF1P3 (eukaryotic translation initiation factor 1 pseudogene 3) | 2 | 7.17 | 53.4 | active |
